Results are given in words; binding and its absence hold for the method and conditions named. Some binding calls cover weakened binding; strength is not graded here.

Protein sequences, listed by entry. Tags and fused reporters are not part of them. Lines headed by an entry give the natural chain unless they say otherwise; changes in a name come on top.
UniProt P43489: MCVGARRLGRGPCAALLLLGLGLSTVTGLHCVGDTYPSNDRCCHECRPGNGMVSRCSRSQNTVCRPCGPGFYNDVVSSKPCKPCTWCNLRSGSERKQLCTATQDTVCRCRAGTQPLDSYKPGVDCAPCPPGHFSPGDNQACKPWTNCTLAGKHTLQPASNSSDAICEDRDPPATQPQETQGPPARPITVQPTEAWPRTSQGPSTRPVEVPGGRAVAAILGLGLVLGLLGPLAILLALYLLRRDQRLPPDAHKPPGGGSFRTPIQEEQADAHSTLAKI

In test [1] the target is human OX40 expressed on cells (human) (UniProt P43489). The test can be described thus: flow cytometry (HyperCyt). A general note: Flow cytometry measures light scatter and fluorescence of single cells or particles in a stream.
For test [2] the target is unchanged. The test can be described thus: flow cytometry (HyperCyt, FL4-H median) on Jurkat OX40 cells, one condition, concentration not given.

B1: OX40 IgG4P (antibody, V domains shown)
VH: QVQLQESGPGLVKPSQTLSLTCAVYGGSFSSGYWNWIRKHPGKGLEYIGYISYNGITYHNPSLKSRITINRDTSKNQYSLQLNSVTPEDTAVYYCARYKYDYDGGHAMDYWGQGTLVTVSS
VL: DIQMTQSPSSLSASVGDRVTITCRASQDISNYLNWYQQKPGKAPKLLIYYTSKLHSGVPSRFSGSGSGTDYTLTISSLQPEDFATYYCQQGSALPWTFGQGTKVEIK
For the molecule B1, the binding result in test [1] and in test [2] was “binds” in each case.
